The test is described as follows: qHTS Assay for Lipid Storage Modulators in Drosophila S3 Cells.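 For cell number change: cells counted by Cell Tracker Red CMTPX staining in the red channel.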 As to conditions: BODIPY lipid droplet fluorescence, 18-24 h; for cell number change: measured here: cell count max response, cells fed with added oleic acid. An outline of the steps:
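Drosophila S3 cells loaded with oleic acid (400 uM, as added) and compounds at several concentrations; lipid droplets imaged by 488-nm laser-scanning cytometry, 500–530 nm intensity and object ratio to cell channel. Percent activity normalized to 20 uM Triacsin C.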

Where [1] appears, read: measured here: cell number channel AC50, cells fed with added oleic acid.
Setting [2] is: measured here: lipid fluorescence (Fed channel) AC50, cells fed with added oleic acid.

Some of the results follow. Shown are side measurements of this screen, not its main read-out; they come without a call. The list favours compounds with an active or inconclusive main result. Potencies come from curve fits of mixed quality, noted in brackets.

Regarding `CC1=C(C(=O)OC(C)C)C(c2cncc(-c3ccc(F)cc3)c2)C(C#N)=C(N)O1` (centres undefined), the cell number change was determined as 35.1%. The AC50 under setting [1] is 13 µM [rising, single point]. Moreover, the AC50 under setting [2] was 14.6 µM [rising, partial curve, poor fit].
In the case of `CCn1nc(C(C)C(=O)O)c2ccccc2c1=O` (centres undefined), the cell number change was -5.12%. Moreover, the concentration at half-maximal activity (AC50) under setting [2] is 2.31 µM [falling, partial curve].
For the molecule `Cc1ccc(SCc2c(C(=O)N/N=C/c3ccncc3)nnn2-c2nonc2N)cc1`, the cell number change was found to be 188%. The AC50 under setting [2] is 0.58 µM [rising, single point].
As to `O=C(Nc1cccnc1)c1cnn2c(C(F)F)cc(C3CC3)nc12`, the cell number change was -16.9%. The AC50 under setting [2] was 0.082 µM [rising, full curve, poor fit].
In the case of `O=C(c1cccc(S(=O)(=O)NCc2ccc3c(c2)OCO3)c1)N1CCCC1`, the cell number change worked out at 6.49%. Further, the AC50 under setting [2] is 5.17 µM [rising, full curve, poor fit].
With `CN=c1scc(C)n1/N=C/c1ccc(O)cc1`, the cell number change came to 7.54%. The AC50 under setting [2] is 2.06 µM [rising, partial curve].
Consider `COc1ccc(CNC(=O)CN(C(=O)c2csnn2)c2ccc3c(c2)OCCO3)cc1`, for which the cell number change is 16.9%.
Consider `O=C(N/C=C/c1ccco1)NCc1ccccc1`, for which the cell number change is -2.96%. Also, under setting [1], the AC50 is 0.0082 µM [falling, full curve, poor fit].
As to `CN(CC(=O)Nc1ccc(F)c(F)c1F)C(=O)c1ccc(-n2cncn2)c([N+](=O)[O-])c1`, the AC50 under setting [2] was 6.51 µM [rising, single point].
Regarding `O=C(Nc1ccccc1Cl)OCc1cncs1`, the cell number change was -35.4%.
On to `CC1(C)CC(=O)C=C(c2cccc(Br)c2)C1`, for which the cell number change is -32.5%. For the same molecule, the AC50 under setting [1] is 25.9 µM [falling, single point]. Also, the AC50 under setting [2] is 0.58 µM [falling, single point].
On to `O=C(NCC1CCN(S(=O)(=O)c2ccccc2)CC1)Nc1ccc(F)cc1F`, for which the cell number change was -23.4%. Moreover, the AC50 under setting [2] is 20.6 µM [falling, single point].
With `O=C(NC1CCCCCC1)C1CC(=O)N(c2ccc(Cl)cc2)C1` (centres undefined), the cell number change turned out to be 23.9%.
With `O=C1NCCCC2c3c(cc(Br)c(O)c3Br)OC12N1CCOCC1` (centres undefined), the cell number change was -13.3%.
Take `Cc1ccc(-c2nnn(CC(=O)N3CCCCC3)n2)cc1`: the cell number change came out at 4.74%. The AC50 under setting [2] was 23.1 µM [rising, partial curve].
Turning to `CCOc1cc(N2CCOCC2)c(OCC)cc1NC(=O)CN1CCN(Cc2ccc3c(c2)OCO3)CC1`, the cell number change was -94.2%. The AC50 under setting [1] is 29.1 µM [falling, single point]. The AC50 under setting [2] was 2.31 µM [rising, partial curve, poor fit].
With `CC1=Nc2ccccc2/C1=C/c1sc(=N)n(-c2nccs2)c1O`, the cell number change was -17.2%.
Take `CC1(C)Cc2[nH]c(=S)c(C#N)cc2CO1`: the cell number change was -35.2%. In addition, the AC50 under setting [1] was 25.9 µM [falling, single point]. The AC50 under setting [2] is 29.1 µM [falling, single point].

These data come from PubChem BioAssay AID2685 (National Center for Advancing Translational Sciences (NCATS), 2010).
